Data taken from publication PMC5890618, “Structural and Functional Insights into Bacillus subtilis Sigma Factor Inhibitor, CsfB” (Structure(London, England:1993), 2018).
Results are given in words; binding and its absence hold for the method and conditions named. One block for each binder: values may come before it.

Key:
[1] = target: T1, CsfB^1-48 (truncated wild-type CsfB, stable degradation product, residues 1-48) (Bacillus subtilis) (UniProt P37534); assay: NMR titration; 15N-labelled CsfB (100 uM for CsfB^A48E) titrated with unlabelled sigma factor up to 1:2 molar equivalents; 1H-15N SOFAST-HMQC; 298 K; 50 mM HEPES pH 7.5, 150 mM KCl, 0.5 mM TCEP; both purified
T1 sequence: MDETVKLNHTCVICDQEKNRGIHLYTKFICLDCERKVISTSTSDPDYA

[2] = target: T1, CsfB^1-48 (truncated wild-type CsfB, stable degradation product, residues 1-48) (Bacillus subtilis); assay: ITC; cell 60 uM CsfB^A48E, syringe 395 uM σ^E; 25°C; 19 injections of 2 ul; 50 mM HEPES pH 7.5, 150 mM KCl, 0.5 mM TCEP; fitted assuming 1:1 stoichiometry; both purified
[3] = target: T2, σ^G (recombinant full-length sigma factor G, residues 1-260) (Bacillus subtilis) (UniProt P19940); assay: ITC; cell 110 uM σ^G, syringe 1.6 mM CsfB^A48E; 25°C; 19 injections of 2 ul; 50 mM HEPES pH 7.5, 150 mM KCl, 0.5 mM TCEP; both purified
T2 sequence: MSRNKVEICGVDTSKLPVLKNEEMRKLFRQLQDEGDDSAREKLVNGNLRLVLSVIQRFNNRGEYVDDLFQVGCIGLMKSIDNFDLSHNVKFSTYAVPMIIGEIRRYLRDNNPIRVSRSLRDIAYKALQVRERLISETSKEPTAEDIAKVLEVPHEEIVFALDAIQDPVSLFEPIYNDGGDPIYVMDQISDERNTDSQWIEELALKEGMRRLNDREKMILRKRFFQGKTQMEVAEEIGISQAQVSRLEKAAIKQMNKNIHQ

binding [1]: no binding
binding [2]: no binding
B1: σ^E (truncated sigma factor E, residues 17-239, lacking the N-terminal membrane-anchored pro-sequence) (domain or fragment, Bacillus subtilis, UniProt P06222 17-239, looked up)
chain: MKLGLKSDEVYYIGGSEALPPPLSKDEEQVLLMKLPNGDQAARAILIERNLRLVVYIARKFENTGINIEDLISIGTIGLIKAVNTFNPEKKIKLATYASRCIENEILMYLRRNNKIRSEVSFDEPLNIDWDGNELLLSDVLGTDDDIITKDIEANVDKKLLKKALEQLNEREKQIMELRFGLVGEEEKTQKDVADMMGISQSYISRLEKRIIKRLRKEFNKMV
notes: Cloned into pET28-TxrA; The tag was removed with TEV 'when required'; also called sigma E; SigE; source: E. coli BL21(DE3)pLysS, purified (HisTrap Ni Sepharose, Superdex75 SEC)

binding [3]: no binding
B2: CsfB^1-48 (truncated wild-type CsfB, stable degradation product, residues 1-48) (domain or fragment, Bacillus subtilis, UniProt P37534 1-48, looked up)
chain: T1 sequence
notes: Produced as N-terminally histidine-tagged full-length CsfB that degraded to 1-48; Symmetrical homodimer by NMR; also called cleaved CsfB; truncated variant; source: E. coli BL21(DE3)pLysS, purified (HisTrap Ni Sepharose, Superdex75 SEC); arises by degradation of recombinant full-length CsfB

binding [1]: no binding
B3: σ^G (recombinant full-length sigma factor G, residues 1-260) (protein, UniProt P19940 1-260)
chain: T2 sequence
